According to patent publication EP4818684A1, “MATERIAL FOR FORMING X-RAY STRUCTURE ANALYSIS SAMPLE, AND METHOD FOR DETERMINING MOLECULAR STRUCTURE OF ORGANIC COMPOUND USING SAME” (The University of Tokyo, priority 2023, dated 2025):

Conditions: Sample forming material 4; 1 µg organic compound (X), 50°C, 17 hours; some cells add '(Collapse of Crystal structure)'

## c1ccc(CNCc2ccccc2)cc1 [Example 23]
  Ability to be analyzed for crystal structure: × (Collapse of Crystal structure)
